The supplement of paper PMC4604168 (melanoma cell lines)
This is one part of the list. Many values rest on one well or one pass, so single values are uncertain.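 The apoptosis fraction was the count of cleaved-PARP antibody-stained nuclei relative to all DNA-stained nuclei, imaged in 1,536-well plates. Screening doses were set so most cells survived, and baseline and induced cleaved-PARP levels vary greatly across cell lines.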

System: RPMI7951
Test: cleaved PARP positive nuclei fraction relative to DMSO control; melanoma cells; higher = more apoptosis
Details: library dose: low library concentration; 72 h

Row | Compound | cleaved PARP positive nuclei fraction [%]
1 | C[C@]1(c2nc3c(C(N)=O)cccc3[nH]2)CCCN1 [Veliparib] + O=C(Oc1ccc([N+](=O)[O-])cc1)N1CCC(C(O)(c2ccc3c(c2)OCO3)c2ccc3c(c2)OCO3)CC1 [JZL184] (first compound 1.4 µM, partner dose 1 µM) | 68.5
2 | Nc1cccc2c1CN(C1CCC(=O)NC1=O)C2=O (configuration not stated) [lenalidomide] + O=C(Oc1ccc([N+](=O)[O-])cc1)N1CCC(C(O)(c2ccc3c(c2)OCO3)c2ccc3c(c2)OCO3)CC1 [JZL184] (first compound 1 µM, partner dose 1 µM) | 60.4
3 | C[C@]12O[C@H](C[C@]1(O)CO)n1c3ccccc3c3c4c(c5c6ccccc6n2c5c31)CNC4=O [Lestaurtinib] + COc1ccc(COc2ccc(Cc3cnc(N)nc3N)cc2OC)cc1 [GW2580] (first compound 0.004 µM, partner dose 1 µM) | 68.1
4 | Cc1nc(Nc2ncc(C(=O)Nc3c(C)cccc3Cl)s2)cc(N2CCN(CCO)CC2)n1 [dasatanib] + C/C(O)=C(\C#N)C(=O)Nc1cc(Br)ccc1Br [LFM-A13] (first compound 0.004 µM, partner dose 2 µM) | 181
5 | Cc1cc(SCc2sc(-c3ccc(C(F)(F)F)c(F)c3)nc2C)ccc1OCC(=O)O + Cc1cc([N+](=O)[O-])ccc1NS(=O)(=O)c1cc(Cl)ccc1Cl [FH535] (first compound 2 µM, partner dose 1 µM) | 118
6 | O=S(=O)(c1ccccc1)N(CC(F)(F)F)c1ccc(C(O)(C(F)(F)F)C(F)(F)F)cc1 + C/C(O)=C(\C#N)C(=O)Nc1cc(Br)ccc1Br [LFM-A13] (first compound 1.4 µM, partner dose 2 µM) | 167
7 | O=C(Oc1ccc([N+](=O)[O-])cc1)N1CCC(C(O)(c2ccc3c(c2)OCO3)c2ccc3c(c2)OCO3)CC1 + CCCCCCCCCCCC1=C(O)C(=O)C=C(O)C1=O [Embelin] (first compound 1 µM, partner dose 1.2 µM) | 160
8 | Cn1cncc1[C@@](N)(c1ccc(Cl)cc1)c1ccc2c(c1)c(-c1cccc(Cl)c1)cc(=O)n2C [tipifarnib] + Cc1cc(SCc2sc(-c3ccc(C(F)(F)F)c(F)c3)nc2C)ccc1OCC(=O)O [GW0742] (first compound 0.01 µM, partner dose 2 µM) | 135
9 | O=C1NC(=O)/C(=C/c2ccc(-c3ccc(F)cc3O)o2)S1 + O=C(Oc1ccc([N+](=O)[O-])cc1)N1CCC(C(O)(c2ccc3c(c2)OCO3)c2ccc3c(c2)OCO3)CC1 [JZL184] (first compound 1 µM, partner dose 1 µM) | 60.7
10 | CN(C)S(=O)(=O)c1ccc2c(c1)/C(=C/c1cc3c([nH]1)CCCC3)C(=O)N2 + Cc1cc(SCc2sc(-c3ccc(C(F)(F)F)c(F)c3)nc2C)ccc1OCC(=O)O [GW0742] (first compound 0.4 µM, partner dose 2 µM) | 80.8
11 | O=C(Oc1ccc([N+](=O)[O-])cc1)N1CCC(C(O)(c2ccc3c(c2)OCO3)c2ccc3c(c2)OCO3)CC1 + Cn1cc(/C=C2\C(=O)Nc3cccnc32)c2ccccc21 [GW441756] (first compound 1 µM, partner dose 0.4 µM) | 36.4
12 | CO[C@H]1C[C@@H]2CC[C@@H](C)[C@@](O)(O2)C(=O)C(=O)N2CCCC[C@H]2C(=O)O[C@H]([C@H](C)C[C@@H]2CC[C@@H](OCCO)[C@H](OC)C2)CC(=O)[C@H](C)/C=C(\C)[C@@H](O)[C@@H](OC)C(=O)[C@H](C)C[C@H](C)/C=C/C=C/C=C/1C [everolimus] + Cc1cc(SCc2sc(-c3ccc(C(F)(F)F)c(F)c3)nc2C)ccc1OCC(=O)O [GW0742] (first compound 0.02 µM, partner dose 2 µM) | 112
13 | C[C@]12O[C@H](C[C@]1(O)CO)n1c3ccccc3c3c4c(c5c6ccccc6n2c5c31)CNC4=O [Lestaurtinib] + CO[C@@H]1[C@H](N(C)C(=O)c2ccccc2)C[C@H]2O[C@]1(C)n1c3ccccc3c3c4c(c5c6ccccc6n2c5c31)C(=O)NC4 [Midostaurin] (first compound 0.004 µM, partner dose 0.08 µM) | 90.7
14 | C[C@]12O[C@H](C[C@]1(O)CO)n1c3ccccc3c3c4c(c5c6ccccc6n2c5c31)CNC4=O [Lestaurtinib] + NC(=O)Nc1cc(-c2cccc(F)c2)sc1C(=O)N[C@H]1CCCNC1 [AZD7762] (first compound 0.004 µM, partner dose 0.02 µM) | 34
15 | C[C@]12O[C@H](C[C@]1(O)CO)n1c3ccccc3c3c4c(c5c6ccccc6n2c5c31)CNC4=O [Lestaurtinib] + CN(NC(=O)CC(=O)NN(C)C(=S)c1ccccc1)C(=S)c1ccccc1 [STA4783] (first compound 0.004 µM, partner dose 0.006 µM) | 67.7
16 | N#Cc1c(O)c2c(-c3ccc(-c4ccccc4O)cc3)csc2[nH]c1=O + Cc1cc(SCc2sc(-c3ccc(C(F)(F)F)c(F)c3)nc2C)ccc1OCC(=O)O [GW0742] (first compound 2 µM, partner dose 2 µM) | 92.4
17 | C[C@]12O[C@H](C[C@]1(O)CO)n1c3ccccc3c3c4c(c5c6ccccc6n2c5c31)CNC4=O [Lestaurtinib] + O=C(O)C(=O)Nc1sc2c(c1C(=O)O)CCNC2 [TCS401] (first compound 0.004 µM, partner dose 1.66667 µM) | 58.2

Reformatted: entries from further up
Row	Compound	cleaved PARP positive nuclei fraction [%]
5	Cc1cc(SCc2sc(-c3ccc(C(F)(F)F)c(F)c3)nc2C)ccc1OCC(=O)O + Cc1cc([N+](=O)[O-])ccc1NS(=O)(=O)c1cc(Cl)ccc1Cl [FH535] (first compound 2 µM, partner dose 1 µM)	118
6	O=S(=O)(c1ccccc1)N(CC(F)(F)F)c1ccc(C(O)(C(F)(F)F)C(F)(F)F)cc1 + C/C(O)=C(\C#N)C(=O)Nc1cc(Br)ccc1Br [LFM-A13] (first compound 1.4 µM, partner dose 2 µM)	167
7	O=C(Oc1ccc([N+](=O)[O-])cc1)N1CCC(C(O)(c2ccc3c(c2)OCO3)c2ccc3c(c2)OCO3)CC1 + CCCCCCCCCCCC1=C(O)C(=O)C=C(O)C1=O [Embelin] (first compound 1 µM, partner dose 1.2 µM)	160
8	Cn1cncc1[C@@](N)(c1ccc(Cl)cc1)c1ccc2c(c1)c(-c1cccc(Cl)c1)cc(=O)n2C [tipifarnib] + Cc1cc(SCc2sc(-c3ccc(C(F)(F)F)c(F)c3)nc2C)ccc1OCC(=O)O [GW0742] (first compound 0.01 µM, partner dose 2 µM)	135
